Experimental findings from PMC5341950, “Antitumor activity of a novel anti-vascular endothelial growth factor receptor-1 monoclonal antibody that does not interfere with ligand binding” (Oncotarget, 2016) are described below.

The chains behind the UniProt entries cited, without tags or fusion partners. Where a name states a change or a piece, a line headed by the entry shows the natural chain unless it says otherwise. Residues count along the entry.
UniProt P17948, residues 27-758: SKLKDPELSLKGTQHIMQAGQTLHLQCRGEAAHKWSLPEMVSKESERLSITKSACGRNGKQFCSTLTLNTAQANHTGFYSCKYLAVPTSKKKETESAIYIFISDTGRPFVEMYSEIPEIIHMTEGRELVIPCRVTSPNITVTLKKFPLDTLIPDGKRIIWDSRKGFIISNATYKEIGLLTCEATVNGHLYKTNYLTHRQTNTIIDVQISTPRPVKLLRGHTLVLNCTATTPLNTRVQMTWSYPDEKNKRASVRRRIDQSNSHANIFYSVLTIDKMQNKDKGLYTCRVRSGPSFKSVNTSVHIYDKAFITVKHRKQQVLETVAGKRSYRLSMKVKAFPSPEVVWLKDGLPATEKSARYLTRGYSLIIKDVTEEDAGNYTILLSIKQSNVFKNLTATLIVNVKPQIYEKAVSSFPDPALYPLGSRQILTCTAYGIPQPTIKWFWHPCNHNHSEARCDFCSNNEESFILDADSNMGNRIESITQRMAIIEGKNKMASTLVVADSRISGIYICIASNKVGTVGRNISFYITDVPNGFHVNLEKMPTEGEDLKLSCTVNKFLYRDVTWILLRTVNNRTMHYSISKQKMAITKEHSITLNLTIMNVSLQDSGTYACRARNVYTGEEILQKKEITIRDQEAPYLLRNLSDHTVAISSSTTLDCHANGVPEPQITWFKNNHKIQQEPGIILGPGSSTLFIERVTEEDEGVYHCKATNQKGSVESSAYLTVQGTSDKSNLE

The assay has as its target T1, recombinant VEGFR-1/Fc chimera (UniProt P17948 27-758).
T1 construct: Vascular endothelial growth factor receptor-1 (VEGFR-1), extracellular region, fused with the Fc region of human immunoglobulins; Bought chimera; source: bought: R&D Systems
Kind of assay: ELISA; 96-well Maxisorp plates coated with 10 ug/ml VEGFR-1/Fc chimera in PBS, blocked with 3% BSA in PBS; 50 ng/ml PlGF or VEGF-A in blocking buffer, 2 h; detection with biotinylated anti-VEGF-A or anti-PlGF antibodies and streptavidin-alkaline phosphatase, absorbance at 405 nm; selected wells pre-incubated with D16F7 or control mAb; both purified. Background: ELISA stands for enzyme-linked immunosorbent assay.

Results are given in words; binding and its absence hold for the method and conditions named. A result given as binding can be weak or reduced; the word gives no strength.

“recombinant placenta growth factor (PlGF) homodimer (from UniProt P49763-2) (ligand)”: the binding result was “binds”.
